Where a name gives a salt, the structure may show the parent alone. The campaign covered roughly 5,300 compounds. About 130 (2.5%) showed an effect of 50% or more. Some of the results follow.
tested on: M. mycetomatis strain mm55; settings: primary screen, metabolic activity vs growth control; 96 h, 2 µM; inhibitor

**Q.** COc1cc2c(cc1OC)[C@@H]1Cc3ccc(OC)c(OC)c3CN1CC2 [ONC0004981, rotundine] was tested. Which “% viability” value did it give?
**A.** 87.52%

**Q.** Which “% viability” value does the source give for CCC(=O)O[C@]1(C(=O)COC(C)=O)CC[C@H]2[C@@H]3C[C@H](C)C4=CC(=O)C=C[C@]4(C)[C@H]3[C@@H](O)C[C@@]21C [ONC0002914, methylprednisoloneaceponate] here?
**A.** 81.53%

**Q.** Which “% viability” value does the source give for CC1(C)CC[C@]2(C(=O)O)CC[C@]3(C)[C@H](C(=O)C=C4[C@@]5(C)C=C(C#N)C(=O)C(C)(C)[C@@H]5CC[C@]43C)[C@@H]2C1 [ONC0003434, bardoxolone rta 401] here?
**A.** 58.72%

**Q.** Which “% viability” value does the source give for CCC[N+]12C3C[C@H](C4C(O)[C@]5(C[C@@H]41)c1ccccc1N(C)[C@@H]35)[C@H](CC)[C@H]2O (some centres unmarked) [ONC0002893, neogilurytmal] here?
**A.** 98.09%

**Q.** How did the “% viability” value turn out when O=C(O)C[C@H](O)C[C@H](O)/C=C/c1c(C2CC2)nc2ccccc2c1-c1ccc(F)cc1 [ONC0004897, pitavastatin calcium livalo] was run?
**A.** 159.5%

**Q.** How did the “% viability” value turn out when Cc1ccc(C)c(OCCCC(C)(C)C(=O)O)c1 [ONC0000359, gemfibrozil] was run?
**A.** 71.17%

**Q.** With CCC1(C2=NCCN2)Cc2ccccc2O1 (centres unmarked) [ONC0001880, efaroxan hydrochloride] as the compound, how does the “% viability” value read?
**A.** 102.7%

**Q.** With Oc1ccc2ccccc2c1Cc1c(O)ccc2ccccc12 [ONC0003705, st1859] as the compound, how does the “% viability” value read?
**A.** 101.3%

**Q.** With O=C(O)c1ccc(NC(=O)[C@H](Cc2ccc(O)cc2)NC(=O)c2ccccc2)cc1 [ONC0002987, bentiromide] as the compound, how does the “% viability” value read?
**A.** 81.81%

**Q.** With Nc1ccncc1N [ONC0001213, pyridine34diamine] as the compound, how does the “% viability” value read?
**A.** 73.45%

**Q.** Which “% viability” value does the source give for CC1(C)CC(=O)c2c(C(F)(F)F)nn(-c3ccc(C(N)=O)c(N[C@H]4CC[C@H](OC(=O)CN)CC4)c3)c2C1 [ONC0004402, pf04929113 snx5422] here?
**A.** 102.9%

**Q.** For C[C@H](/C=C/[C@H](C)C(C)(C)O)[C@H]1CC[C@H]2/C(=C/C=C3C[C@@H](O)C[C@H](O)C3)CCC[C@]12C [ONC0003669, paricalcitol], which “% viability” value is on record?
**A.** 75.78%

**Q.** Which “% viability” value does the source give for CCCCCCOc1nsnc1C1=CCCN(C)C1.O=C(O)C(=O)O [ONC0001841, xanomeline oxalate] here?
**A.** 152.3%

**Q.** How did the “% viability” value turn out when CN(C)c1ccc(/C=C2\CCCN=C2c2cccnc2)cc1 [ONC0002266, dmabanabaseine] was run?
**A.** 49.52%

**Q.** With CC1(C)[C@@H](O)CC[C@]2(C)[C@H]3C(=O)C=C4[C@@H]5C[C@@](C)(C(=O)O)CC[C@]5(C)CC[C@@]4(C)[C@]3(C)CC[C@@H]12 [ONC0003205, enoxolone] as the compound, how does the “% viability” value read?
**A.** 101.1%

**Q.** With CS(=O)(=O)Oc1ccc2c(NC(N)=O)c(C(=O)c3ccc(Cl)cc3Cl)oc2c1 [ONC0003421, lirimilast] as the compound, how does the “% viability” value read?
**A.** 79.49%

**Q.** C[C@]12CCC(=O)C=C1C=C[C@@H]1[C@@H]2CC[C@@]2(C)[C@H]1CC[C@@]21CCC(=O)O1 [ONC0003894, canrenone] was tested. Which “% viability” value did it give?
**A.** 81.47%

**Q.** With COC(=O)[C@@H](N)Cc1ccc(O)c(O)c1 [ONC0005588, melevodopa] as the compound, how does the “% viability” value read?
**A.** 66.62%

**Q.** With CC1CCc2c(cc(Br)c(F)c2Br)N1C=O (centres unmarked) [ONC0000212, ce3f4] as the compound, how does the “% viability” value read?
**A.** 63.34%

**Q.** COCCOC(=O)C1=C(C)NC(C)=C(C(=O)OC(C)C)C1c1cccc([N+](=O)[O-])c1 (centres unmarked) [ONC0002462, nimodipine] was tested. Which “% viability” value did it give?
**A.** 59.68%

**Q.** Which “% viability” value does the source give for NCCS [ONC0004241, cysteamine hydrochloride] here?
**A.** 74.09%

**Q.** COc1c(C)c2c(c(O)c1C/C=C(\C)CCC(=O)OCCN1CCOCC1)C(=O)OC2 [ONC0003904, mycophenolate mofetil] was tested. Which “% viability” value did it give?
**A.** 55.21%

**Q.** How did the “% viability” value turn out when N#CCCCSC(=N)N [ONC0001077, kevetrin hydrochloride] was run?
**A.** 77.57%

**Q.** COC(=O)CCc1ccc(OCC(O)CNC(C)C)cc1 (centres unmarked) [ONC0004507, esmolol hcl] was tested. Which “% viability” value did it give?
**A.** 65%

**Q.** How did the “% viability” value turn out when Cc1nc[nH]c1CCN [ONC0003614, 4methylhistamine] was run?
**A.** 60.02%

**Q.** For O=C(O)c1ccc(-n2nc(-c3ccccc3O)nc2-c2ccccc2O)cc1 [ONC0004860, deferasirox exjade], which “% viability” value is on record?
**A.** 114.7%

**Q.** COc1cc(Cc2cnc(N)nc2N)c(C(C)C)cc1OC [ONC0000829, ro3] was tested. Which “% viability” value did it give?
**A.** 96.85%

**Q.** With NC(=O)OCC(O)COc1ccc(Cl)cc1 (centres unmarked) [ONC0002294, chlorphensincarbamate] as the compound, how does the “% viability” value read?
**A.** 59.16%

**Q.** Which “% viability” value does the source give for O=C(Nc1nc(-c2cc(Cl)cs2)c(N2CCN(C3CCCCC3)CC2)s1)c1cnc(N2CCC(C(=O)O)CC2)c(Cl)c1 [ONC0002265, avatrombopag] here?
**A.** 50.97%

**Q.** Which “% viability” value does the source give for CCC(CC)(NC(=O)C(C)C)C(=O)N[C@@H](CCCNC(=N)N)C(=O)NC1(C(=O)NC(c2ccc(F)cc2)c2ccc(F)cc2)CCCC1 [ONC0004570, mm102] here?
**A.** 64.58%

**Q.** O[C@@](Cc1nc(CC2(C(F)(F)F)CC2)c[nH]1)(c1ccc(-n2cccn2)cc1)C(F)(F)F [ONC0001832, mk5046] was tested. Which “% viability” value did it give?
**A.** 111.8%

**Q.** For O=C(O)C(O)C(O)C(=O)O (centres unmarked) [ONC0003328, tartaric acid], which “% viability” value is on record?
**A.** 71.34%

**Q.** O=c1[nH]c2ccccc2n1C1CCN(CCOc2ccccc2)CC1 [ONC0003728, oxiperomide] was tested. Which “% viability” value did it give?
**A.** 91.16%

**Q.** With Nc1nc(=O)c2c([nH]1)NC[C@H](CNc1ccc(C(=O)N[C@@H](CCC(=O)O)C(=O)O)cc1)N2C=O [ONC0004347, calcium levofolinate calcium folinate] as the compound, how does the “% viability” value read?
**A.** 141.7%

**Q.** How did the “% viability” value turn out when O=C1CCCCCCCCCCCCCCO1 [ONC0002133, oxacyclohexadecan2one] was run?
**A.** 71.7%

**Q.** For Clc1ccc(CCCOCCCN2CCCCC2)cc1 [ONC0001415, bf2649], which “% viability” value is on record?
**A.** 62.69%

**Q.** For COc1ccc(CCc2nc3cc(-c4c(C)noc4C)ccc3n2C[C@H](C)N2CCOCC2)cc1Cl [ONC0004319, sgccbp30], which “% viability” value is on record?
**A.** 120.7%

**Q.** How did the “% viability” value turn out when Oc1cc2c(cc1O)C(Cc1cccc3ccccc13)NCC2 (centres unmarked) [ONC0001928, ys49] was run?
**A.** 88.3%

**Q.** For O=C(O)c1cc2cccc([N+](=O)[O-])c2[nH]1 [ONC0004449, crt0044876], which “% viability” value is on record?
**A.** 125.7%

**Q.** Which “% viability” value does the source give for O=C(O)C1CCC(c2cc3cccnc3c(-c3cccc(F)c3)n2)CC1 (stereo not drawn) [ONC0001997, trans483fluorophenyl17naphthyridin6ylcyclohexanecarboxylicacid] here?
**A.** 88.66%

**Q.** How did the “% viability” value turn out when CCOC(=O)c1c[nH]cn1 [ONC0001859, c751] was run?
**A.** 100.3%

**Q.** How did the “% viability” value turn out when CCn1c(-c2nonc2N)nc2cncc(C(=O)N3CC[C@H](N)C3)c21 [ONC0001648, sb772077b] was run?
**A.** 82.21%

**Q.** Which “% viability” value does the source give for C[C@H](Nc1cc(-c2cnn(C)c2)cc(Nc2cnccn2)n1)c1ccc(F)cc1 [ONC0001380, ilginatinib hydrochloride] here?
**A.** 92.74%

**Q.** Which “% viability” value does the source give for C[C@@H]1C[C@@H]([C@H](O)CC2CC(=O)NC(=O)C2)C(=O)[C@@H](C)C1 [ONC0004057, cycloheximide] here?
**A.** 159.9%

**Q.** With COc1cccc(N(C)C(=S)Oc2ccc3c(c2)CCCC3)n1 [ONC0005039, liranaftate] as the compound, how does the “% viability” value read?
**A.** 93.1%

**Q.** For Cc1ccc(-c2ncn(-c3ccc(Nc4nccc(-c5cccc(N6CCOCC6)c5)n4)cc3)n2)cn1 [ONC0001017, sr3306], which “% viability” value is on record?
**A.** 76.53%

**Q.** With CCNC(=O)c1noc(-c2cc(C(C)C)c(O)cc2O)c1-c1ccc(CN2CCOCC2)cc1 [ONC0001803, luminespib] as the compound, how does the “% viability” value read?
**A.** 119.4%

**Q.** CCCNC(C)C(=O)Nc1c(C)csc1C(=O)OC (centres unmarked) [ONC0004821, articaine hcl] was tested. Which “% viability” value did it give?
**A.** 100%

**Q.** With NCCc1cc[nH]n1 [ONC0003696] as the compound, how does the “% viability” value read?
**A.** 54.75%

**Q.** With COc1cc(N)c(Cl)cc1C(=O)CCC1CCN(CCNS(C)(=O)=O)CC1 [ONC0002585, rs67506] as the compound, how does the “% viability” value read?
**A.** 61.24%

**Q.** With CNCc1ccc(-c2[nH]c3cc(F)cc4c3c2CCNC4=O)cc1 [ONC0004671, rucaparib ag014699pf01367338 phosphate] as the compound, how does the “% viability” value read?
**A.** 102.4%

**Q.** With O=C1NC(=O)c2cc(Nc3ccc(F)cc3)c(Nc3ccc(F)cc3)cc21 [ONC0001274, cgp53353] as the compound, how does the “% viability” value read?
**A.** 118.4%

**Q.** For CN[C@@H]1C(O)[C@@H](O[C@@H]2[C@@H](O)[C@H](O[C@H]3OC(CN)=CC[C@H]3N)[C@@H](N)C[C@H]2N)OC[C@]1(C)O (some centres unmarked) [ONC0004182, sisomicin sulfate], which “% viability” value is on record?
**A.** 80.98%

**Q.** How did the “% viability” value turn out when CC(=O)c1cc([N+](=O)[O-])c(Sc2ccc(F)cc2F)s1 [ONC0005133, p22077] was run?
**A.** 95.02%

**Q.** Which “% viability” value does the source give for C[C@H](NC[C@H](O)CP(=O)(O)Cc1ccccc1)c1ccc(Cl)c(Cl)c1 [ONC0001599, cgp55845] here?
**A.** 83.7%

**Q.** O=C(O)C(Cl)Cl [ONC0002183, dichloroacetate] was tested. Which “% viability” value did it give?
**A.** 74.22%

**Q.** How did the “% viability” value turn out when NS(=O)(=O)Cc1noc2ccccc12 [ONC0002687, zonisamide] was run?
**A.** 69.04%

**Q.** How did the “% viability” value turn out when CC(=N)NCc1cccc(CN)c1 [ONC0002472, 1400w] was run?
**A.** 77.71%

**Q.** With CN(C)CCN(Cc1ccc(Cl)cc1)c1ccccn1 [ONC0005381, chloropyramine hydrochloride] as the compound, how does the “% viability” value read?
**A.** 93.83%

**Q.** How did the “% viability” value turn out when CCCCCCCCCCOc1cc2c(O)c(C(=O)OCC)cnc2cc1OCC [ONC0001862, decoquinate] was run?
**A.** 96.28%

**Q.** C=CCc1ccc(O)c(-c2cc(CC=C)ccc2O)c1 [ONC0004998, magnolol] was tested. Which “% viability” value did it give?
**A.** 110.9%

**Q.** For COc1ccc2c(c1)C(=O)N(CCc1ccc(S(=O)(=O)NC(=O)NC3CCCCC3)cc1)C(=O)C2(C)C [ONC0005045, gliquidone], which “% viability” value is on record?
**A.** 85.53%

Reference: publication PMC12670160, “A drug-repurposing screen of FDA- and EMA-approved drugs identifies two NF-κB inhibitors active against eumycetoma” (Journal of Antimicrobial Chemotherapy, 2025)
